PMC5484694
These are yes or no findings as the source states them, for the method shown. In cells and extracts the contact can be indirect. Some results given as binding are weak or reduced against the parent protein; the word gives no strength. Where a sequence is shown, tags or fusion partners need not be part of it.

The chains behind the UniProt entries cited, without tags or fusion partners. Where a name states a change or a piece, a line headed by the entry shows the natural chain unless it says otherwise.
UniProt P61586: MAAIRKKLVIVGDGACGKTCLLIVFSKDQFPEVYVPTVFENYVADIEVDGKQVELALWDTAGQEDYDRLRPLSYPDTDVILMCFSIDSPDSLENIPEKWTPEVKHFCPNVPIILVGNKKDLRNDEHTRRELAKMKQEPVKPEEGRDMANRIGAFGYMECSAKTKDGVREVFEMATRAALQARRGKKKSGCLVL

Biological target: GST-RhoA-G17A (UniProt P61586)
Assay: pull-down; GST-RhoA-G17A from transfected COS-7 lysate held on glutathione Sepharose beads, incubated at 4 °C in extracts of COS-7 cells expressing myc-GEF-H1 (alone or with myc-CaMKI-WT, -CA or -KD); lysis buffer 10 mM HEPES pH 7.5, 150 mM NaCl, 1 mM MgCl2, 1 mM EGTA, 0.2% Triton-X; immunoblot with anti-myc; only the target purified

binding	Binder
binds	myc-GEF-H1 phosphorylated at Thr103 (co-expressed with CaMKI-CA) (protein, UniProt Q60875 1-985, phosphothreonine at 103 (by co-expressed CaMKI-CA)) MSRIESLTRARIDRSKEQATKTREKEKMKEAKDARYTNGHLFTTISVSGMTMCYACNKSITAKEALICPTCNVTIHNRCKDTLANCTKVKQKQQKAALLRNNTALQSVSLRSKTTTRERPTSAIYPSDSFRQSLLGSRRGLSSLSLAKSVSTTNIAGHFNDESPLGLRQILSQSTDSLNMRNRTLSVESLIDEGVEVFYNELMSDFEMDEKDFEADSWSLAVDSSFLQQHKKEVMKKQDVIYELIQTELHHVRTLKIMTRLFRTGMLEELQMEPEVVQGLFPCVDELSDIHTRFLNQLLERRRQALCPGSTRNFVIHRLGDLLISQFSGSNAEQMRKTYSEFCSRHTKALKLYKELYARDKRFQQFIRKMTRSAVLKRHGVQECILLVTQRITKYPVLINRILQNSHGVEEEYQDLASALGLVKELLSNVDQDVHELEKEARLQEIYNRMDPRAQTPVPGKGPFGRDELLRRKLIHEGCLLWKTATGRFKDVLLLLMTDVLVFLQEKDQKYIFTSLDKPSVVSLQNLIVRDIANQAKGMFLISSGPPEMYEVHAASRDDRTTWIRVIQQSVRLCPSREDFPLIETEDKAYLRRIKTKLQQKNQALVELLQKNVELFAEMVHFQALKAGFVGMPPPALPRGLFRLESFESLRGERLLKDALREVEGLKDLLLGPCVDLPMTSREPALPLDSDSGSCPGVTANGEARTFNGSIELCRADSDSSQKDRNGNQLRSPQEEVLQPLINLYGLLHGLQAVVVQQERLMEALFPEGPERWEKLSRANSRDGEAGRAAVASVTPEKQATELALLQRQHTLLQEELRRCQRLGEERATEAGSLEARLRESEQARALLEREAEEIRRQLAALGQNEPLPAEAPWARRPLDPRRRSLPAGDALYLSFNPPQPSRGHDRLDLPVTVRSLHRPFDDREAQELGSPEDRLQDSSDPDTGSEEEVSSRLSPPHSPRDFTRMQDIPEETESRDGEPTASES
binds	myc-GEF-H1–T103E (protein, UniProt Q60875 1-985) MSRIESLTRARIDRSKEQATKTREKEKMKEAKDARYTNGHLFTTISVSGMTMCYACNKSITAKEALICPTCNVTIHNRCKDTLANCTKVKQKQQKAALLRNNEALQSVSLRSKTTTRERPTSAIYPSDSFRQSLLGSRRGLSSLSLAKSVSTTNIAGHFNDESPLGLRQILSQSTDSLNMRNRTLSVESLIDEGVEVFYNELMSDFEMDEKDFEADSWSLAVDSSFLQQHKKEVMKKQDVIYELIQTELHHVRTLKIMTRLFRTGMLEELQMEPEVVQGLFPCVDELSDIHTRFLNQLLERRRQALCPGSTRNFVIHRLGDLLISQFSGSNAEQMRKTYSEFCSRHTKALKLYKELYARDKRFQQFIRKMTRSAVLKRHGVQECILLVTQRITKYPVLINRILQNSHGVEEEYQDLASALGLVKELLSNVDQDVHELEKEARLQEIYNRMDPRAQTPVPGKGPFGRDELLRRKLIHEGCLLWKTATGRFKDVLLLLMTDVLVFLQEKDQKYIFTSLDKPSVVSLQNLIVRDIANQAKGMFLISSGPPEMYEVHAASRDDRTTWIRVIQQSVRLCPSREDFPLIETEDKAYLRRIKTKLQQKNQALVELLQKNVELFAEMVHFQALKAGFVGMPPPALPRGLFRLESFESLRGERLLKDALREVEGLKDLLLGPCVDLPMTSREPALPLDSDSGSCPGVTANGEARTFNGSIELCRADSDSSQKDRNGNQLRSPQEEVLQPLINLYGLLHGLQAVVVQQERLMEALFPEGPERWEKLSRANSRDGEAGRAAVASVTPEKQATELALLQRQHTLLQEELRRCQRLGEERATEAGSLEARLRESEQARALLEREAEEIRRQLAALGQNEPLPAEAPWARRPLDPRRRSLPAGDALYLSFNPPQPSRGHDRLDLPVTVRSLHRPFDDREAQELGSPEDRLQDSSDPDTGSEEEVSSRLSPPHSPRDFTRMQDIPEETESRDGEPTASES
binds	myc-GEF-H1–WT (protein, UniProt Q60875 1-985) MSRIESLTRARIDRSKEQATKTREKEKMKEAKDARYTNGHLFTTISVSGMTMCYACNKSITAKEALICPTCNVTIHNRCKDTLANCTKVKQKQQKAALLRNNTALQSVSLRSKTTTRERPTSAIYPSDSFRQSLLGSRRGLSSLSLAKSVSTTNIAGHFNDESPLGLRQILSQSTDSLNMRNRTLSVESLIDEGVEVFYNELMSDFEMDEKDFEADSWSLAVDSSFLQQHKKEVMKKQDVIYELIQTELHHVRTLKIMTRLFRTGMLEELQMEPEVVQGLFPCVDELSDIHTRFLNQLLERRRQALCPGSTRNFVIHRLGDLLISQFSGSNAEQMRKTYSEFCSRHTKALKLYKELYARDKRFQQFIRKMTRSAVLKRHGVQECILLVTQRITKYPVLINRILQNSHGVEEEYQDLASALGLVKELLSNVDQDVHELEKEARLQEIYNRMDPRAQTPVPGKGPFGRDELLRRKLIHEGCLLWKTATGRFKDVLLLLMTDVLVFLQEKDQKYIFTSLDKPSVVSLQNLIVRDIANQAKGMFLISSGPPEMYEVHAASRDDRTTWIRVIQQSVRLCPSREDFPLIETEDKAYLRRIKTKLQQKNQALVELLQKNVELFAEMVHFQALKAGFVGMPPPALPRGLFRLESFESLRGERLLKDALREVEGLKDLLLGPCVDLPMTSREPALPLDSDSGSCPGVTANGEARTFNGSIELCRADSDSSQKDRNGNQLRSPQEEVLQPLINLYGLLHGLQAVVVQQERLMEALFPEGPERWEKLSRANSRDGEAGRAAVASVTPEKQATELALLQRQHTLLQEELRRCQRLGEERATEAGSLEARLRESEQARALLEREAEEIRRQLAALGQNEPLPAEAPWARRPLDPRRRSLPAGDALYLSFNPPQPSRGHDRLDLPVTVRSLHRPFDDREAQELGSPEDRLQDSSDPDTGSEEEVSSRLSPPHSPRDFTRMQDIPEETESRDGEPTASES
